Measurements taken from patent US20070014761A1.
These are yes or no findings as the source states them, for the method shown. Binding seen in cells or lysates may run through a third protein. Some binding calls cover weakened binding; strength is not graded here. Sequences can lack the tags named with a protein.

Sequences of proteins named here, by UniProt entry; tags and fusion partners are left off. A change or cut given only in a name is not applied to a line headed by its entry.
UniProt Q9NPF7: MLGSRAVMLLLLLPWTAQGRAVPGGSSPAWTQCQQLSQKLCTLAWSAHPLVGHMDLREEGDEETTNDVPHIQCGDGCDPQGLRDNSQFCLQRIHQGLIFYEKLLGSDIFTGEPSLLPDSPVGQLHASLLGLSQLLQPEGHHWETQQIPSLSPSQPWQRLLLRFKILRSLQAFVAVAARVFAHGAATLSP

Key:
[1] = target: IL23A-Chis (human) (UniProt Q9NPF7); experiment: co-immunoprecipitation from conditioned medium of co-transfected 293T cells (Ni NTA-agarose pulls down zsig81-Cflag; anti-FLAG-agarose captures IL23A-Chis), western blot
[2] = target: IL23A-Chis (human) (UniProt Q9NPF7); experiment: co-immunoprecipitation, western blot

binding [1]: binds | binding [2]: binds
B1: zsig81-Cflag (ligand)
chain: SMCHRWSRAVLFPAAHRPKRSSSLPLNPVLQTSLEEVELLYEFLLAELEISPDLQISIKDEELASLRKASDFRTVCNNVIPKSIPDIRRLSASLSSHPGILKKEDFERTVLTLAYTAYRTALSHGHQKDIWAQSLVSLFQALRHDLMRSSQPGVPPDYKDDDDK
